Here are results for one molecule from patent US20130216544A1 (GEMOAB MONOCLONALS, published 2013).

Test [1] deals with T1, recombinant human La protein (rhLa), SEQ ID No. 1 with His tag (human) (UniProt P05455).
T1 sequence: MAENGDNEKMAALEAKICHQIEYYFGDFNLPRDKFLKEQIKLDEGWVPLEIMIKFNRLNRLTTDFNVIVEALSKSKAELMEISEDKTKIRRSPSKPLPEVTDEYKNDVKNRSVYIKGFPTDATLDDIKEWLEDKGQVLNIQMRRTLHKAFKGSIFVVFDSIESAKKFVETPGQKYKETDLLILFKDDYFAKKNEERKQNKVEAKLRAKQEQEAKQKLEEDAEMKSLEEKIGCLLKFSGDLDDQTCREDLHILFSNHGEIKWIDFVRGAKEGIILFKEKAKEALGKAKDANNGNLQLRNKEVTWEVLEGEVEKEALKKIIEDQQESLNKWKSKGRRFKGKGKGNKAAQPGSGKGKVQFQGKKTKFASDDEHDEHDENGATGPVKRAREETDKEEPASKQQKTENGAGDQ
Put plainly: FACS on cells decorated with rhLa.

Test [2] addresses T1, recombinant human La protein (rhLa), SEQ ID No. 1 with His tag (human). Briefly: FACS on cells decorated with rhLa; 10 µg scFv, detected with anti-c-myc-FITC.

No constants are given. Whether binding was seen depends on the method and setting. Some results given as binding are weak or reduced against the parent protein; the word gives no strength. Tags and fused reporters may be left off the sequences shown.

B1: 7B6 scFv (scFv, not shown: small tags and cut ends)
scFv: VKLQESGGGLVQPGRPMKLSCVASGFTFSDFWMNWVRQSPEKGLEWVAQIRNKPNNYETYYSDSLKGRFTISRDDSKSSVYLQMNNLRPEDMGIYYCTLGNSWFAYWGQGTLVTVSGGGGSGGGGSGGGGSDIVITQSPSSLAVSAGEKVTMSCRSSQSLLDSRTRKNYLAWYQQKPGQSPKLLIYWASTRESGVPDRFTGSGSGTDFTLTISNVQAEDLAVYYCKQSYNLPTFGGGTKLEIHHHHHH
For the molecule B1, the binding result in test [1] and in test [2] was “binds” in each case.
